Reference: patent US20050278809A1
Results are given in words; binding and its absence hold for the method and conditions named. Binding seen in cells or lysates may run through a third protein. Some results given as binding are weak or reduced against the parent protein; the word gives no strength. Sequences can lack the tags named with a protein.

Legend:
[1] = molecular target: T1, GST-HDA19 fusion protein (recombinant Arabidopsis thaliana HDA19 fused to glutathione S-transferase) (Arabidopsis thaliana) (UniProt O22446); experiment: summary of GST pulldown and yeast two-hybrid results
T1 sequence (looked up): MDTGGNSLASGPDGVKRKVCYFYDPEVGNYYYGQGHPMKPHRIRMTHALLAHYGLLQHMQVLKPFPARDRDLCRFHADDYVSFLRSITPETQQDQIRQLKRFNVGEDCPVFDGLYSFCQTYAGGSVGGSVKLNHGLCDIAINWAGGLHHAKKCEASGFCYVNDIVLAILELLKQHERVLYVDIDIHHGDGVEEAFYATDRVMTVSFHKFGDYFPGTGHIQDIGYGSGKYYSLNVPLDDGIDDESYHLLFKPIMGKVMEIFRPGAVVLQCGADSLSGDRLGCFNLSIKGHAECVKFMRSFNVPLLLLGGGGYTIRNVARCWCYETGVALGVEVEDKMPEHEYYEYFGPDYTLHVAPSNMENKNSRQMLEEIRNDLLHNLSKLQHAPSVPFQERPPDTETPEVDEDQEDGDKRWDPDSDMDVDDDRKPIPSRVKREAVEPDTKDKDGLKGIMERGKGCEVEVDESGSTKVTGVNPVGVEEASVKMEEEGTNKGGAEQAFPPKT

[2] = molecular target: T2, GST-Gcn5 fusion protein (recombinant Arabidopsis HAT Gcn5 fused to glutathione S-transferase) (Arabidopsis) (UniProt Q9AR19); experiment: as above
T2 sequence (looked up): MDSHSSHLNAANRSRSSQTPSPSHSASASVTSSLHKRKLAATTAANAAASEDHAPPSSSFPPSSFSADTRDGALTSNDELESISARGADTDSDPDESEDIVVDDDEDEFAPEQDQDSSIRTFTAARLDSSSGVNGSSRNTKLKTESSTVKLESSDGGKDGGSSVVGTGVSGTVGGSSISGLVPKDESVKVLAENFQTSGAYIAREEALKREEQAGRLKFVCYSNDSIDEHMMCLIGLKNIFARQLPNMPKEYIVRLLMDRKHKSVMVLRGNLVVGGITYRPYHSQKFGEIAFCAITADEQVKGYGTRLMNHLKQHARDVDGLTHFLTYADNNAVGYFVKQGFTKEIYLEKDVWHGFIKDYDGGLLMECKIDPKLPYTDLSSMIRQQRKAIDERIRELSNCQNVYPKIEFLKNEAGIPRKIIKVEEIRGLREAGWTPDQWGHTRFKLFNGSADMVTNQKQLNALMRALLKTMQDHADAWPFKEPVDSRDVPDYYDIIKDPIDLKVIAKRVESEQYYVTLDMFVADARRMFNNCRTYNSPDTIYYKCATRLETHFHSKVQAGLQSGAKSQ

[3] = molecular target: T1, GST-HDA19 fusion protein (recombinant Arabidopsis thaliana HDA19 fused to glutathione S-transferase) (Arabidopsis thaliana); experiment: in vitro protein binding assays (GST pulldown)
[4] = molecular target: T2, GST-Gcn5 fusion protein (recombinant Arabidopsis HAT Gcn5 fused to glutathione S-transferase) (Arabidopsis); experiment: in vitro protein binding assays (GST pulldown)
[5] = molecular target: T1, GST-HDA19 fusion protein (recombinant Arabidopsis thaliana HDA19 fused to glutathione S-transferase) (Arabidopsis thaliana); experiment: GST pulldown, [35S]Met-labelled in vitro translated protein, fluorography
[6] = molecular target: T2, GST-Gcn5 fusion protein (recombinant Arabidopsis HAT Gcn5 fused to glutathione S-transferase) (Arabidopsis); experiment: as above

binding [1]: binds
binding [2]: binds
binding [3]: binds
binding [4]: binds
binding [5]: binds
binding [6]: binds
B1: bnKCP1 (B. napus KID-containing protein 1), full-length, in vitro translated (protein)
chain: MAGGGPTFSIELSAYGSDLPTDKASGDIPNEEGSGLSRVGSGIWSGRTVDYSSESSSSIGTPGDSEEEDEESEEDNDEEELGLASLRSLEDSLPSKGLSSHYKGKSKSFGNLGEIGSVKEVPKQENPLNKKRRLQIYNKLARKSFYSWQNPKSMPLLPVHEDNDDEEGDDGDLSDEERGGDVLARRPSFKNRALKSMSCFALSDLQEEEEEEEDE
modifications: labeled with [^35S]methionine
